# ± gives the standard deviation of the averaged measurements. Most values lie at the floor of the assay. Slopes are relative: functional sequences can read slightly below zero.
# Test system: Saccharomyces cerevisiae PS128 hsf1 delta, HSF1(1-493) fusion
# Experiment: growth estimate (transactivation domain function in HSF1 fusion, heat-shock survival) (a.u. (slope of normalised read count over time)); higher = stronger growth at 37°C, i.e. more transactivation activity
# Conditions: library: random library
row,Substance,growth estimate
1,EPDWLGERLCGWA,< -0.25
2,LAVM,< -0.25
3,ILWMSKVIFFALVWRQLEGE,< -0.25
4,WIHVGDGWSMLKFWGPTVGM,< -0.25
5,TTHTSGTIGPNSSTTPFRAF,< -0.25
6,RADTSGTRWLTFEPDRVMII,< -0.25
7,PPSDRIESSV,< -0.25
8,PEPGRCEKLIGILRTSGVRE,< -0.25
9,FRVVRYLYNTATNERHPQQP,< -0.25
10,ASNSIAEWLLCRDRTEVPEQ,0.784
11,YRGRSYVRRSALIRMRLKAP,< -0.25
12,QSVATTAVEPCGTGGPQVDG,< -0.25
13,TASESVWLSHLPSTKF,< -0.25
14,TLSRTGAGVSHAHTGRSQGR,< -0.25
15,RIAEGRNVSLYVAFGS,< -0.25
16,VHR,-0.247 ± 0.0037
17,KGDACRVDTLGSAICSLRQL,< -0.25
18,RHHPR,< -0.25
19,GNWLSVS,< -0.25
20,TITLGLEEWLCGPAPQSGYP,< -0.25
21,PDLLQRTLLLS,< -0.25
22,ESAADLWINYV,< -0.25
23,GFANIPQYPAAHLESSSAHH,< -0.25
24,PTLPRQPSTMHARVPRVVCD,< -0.25
25,VVDI,< -0.25

row,Substance,growth estimate
1,RSCRARAGIAVYADSRGNVG,< -0.25
2,LVTRTEFPEGEKNTLSARHT,< -0.25
3,SSHVALQRGTISPDTPMLCP,< -0.25
4,RCQQAYL,< -0.25
5,HRLTCIRRGSSVKSVRRQGR,< -0.25
6,TVMAATPVIC,< -0.25
7,PAGGSLKTPPLSYAREIHLS,< -0.251
8,NGLTKVAGPVNHAPDGHRSS,< -0.25
9,QRFMLEFYRRLGLAELLRTV,< -0.25
10,GIQKSPTKCVPFRNE,< -0.25
11,RPGHEISKVKRSLLLP,< -0.25
12,GTFTI,< -0.25
13,AIPKPGLFKDLIPNDGYFRT,< -0.25
14,RALKKRTGASSP,< -0.25
15,KKLIARGQRGEGTW,< -0.25
16,LLYAQATWRAASIVSYVPWT,< -0.25
17,DRSAVS,< -0.25
18,EGITSSLSA,-0.248
19,VNEPEDVSQICV,< -0.25
20,PLNVSFRSGLPISGLLIGRS,< -0.25
21,LGAGEFLHCVRISILYLLHA,< -0.25
22,VGTRNLSHVLLR,< -0.25
23,WRM,< -0.25
24,DQRSSRRRTILWTFAS,< -0.25
25,RHWFNPRKNHSRWCWLKTMP,< -0.25

row,Substance,growth estimate
1,YGDNLSQVAVGSYPLWLLWG,< -0.25
2,IRVMWSRASREFWGSQSPRL,< -0.25
3,SRISSKVVFGLFDGLCKYLS,< -0.25
4,RRDPYCADTDMLDTLQRAGS,< -0.25
5,QELSFTLD,< -0.25
6,GLTVRRRLYLRSHEGGLLPG,< -0.25
7,PYHGSPRLRPL,< -0.25
8,THSIRFESNCMRRRRPHARK,< -0.25
9,HSGCAGI,< -0.25
10,RAL,< -0.25
11,RYATRVPA,< -0.25
12,YFPAYNLTIRKGGPYLFLFG,< -0.25
13,NIMLSVTNFCVRQMAAKLGD,< -0.25
14,SAEDVPGSNFMLPMGIGVCK,-0.245
15,KVRKA,< -0.25
16,HGLAYKSRVTASIPVQGLLP,< -0.25
17,LMGRPGELLVHINLDVVPST,< -0.25
18,CEGGHYN,< -0.25
19,VGERDWTHVDV,< -0.25
20,LVQVTA,< -0.25
21,LVLPVRGALGNGGWSKLSTI,-0.245
22,LVHRNG,< -0.25
23,EVVNRCIERCWFRLGAYGGT,< -0.25
24,AGSKLQREFPTLPWVVYDGP,< -0.25
25,QRFSRKGDVQGPRPQAQSPR,< -0.25

row,Substance,growth estimate
1,NCACPVLG,< -0.25
2,LVRIPSTCAYELVVLRVQSV,< -0.25
3,FEL,< -0.25
4,FRGHSVNWRERDDGWN,< -0.25
5,RNEG,< -0.25
6,TRLDIFWVLTV,< -0.25
7,NWQSAGNATTVR,< -0.25
8,VRDISWCRLIDEVNDLRNGN,< -0.25
9,PPITTK,< -0.25
10,ARHRCLGEGAFLAIGSTGVL,< -0.25
11,SYARSCGLRYGGRLSQLCTR,< -0.25
12,QQICLGRSDAESRSVADHLG,< -0.25
13,VIVFLDSKIHSSKR,< -0.25
14,GSRGPEISVVNRSEVSA,< -0.25
15,YTRRVSGGCKTFSVSRVGPR,< -0.25
16,SRFGAVKLARGVNTFISVSP,< -0.25
17,GEEKPALTSRDSRCGM,< -0.25
18,RDFYREWAEYKESPPV,< -0.25
19,TTKAAS,< -0.25
20,GPC,< -0.25
21,AIRLLATESFPESNTFETAL,< -0.25
22,YHMR,< -0.25
23,NVPPW,< -0.25

# Reprinted at random: 6 records from the list
row,Substance,growth estimate
22,YHMR,< -0.25
1,YGDNLSQVAVGSYPLWLLWG,< -0.25
20,PLNVSFRSGLPISGLLIGRS,< -0.25
12,GTFTI,< -0.25
21,PDLLQRTLLLS,< -0.25
16,VHR,-0.247 ± 0.0037

# Reference: the supplement of paper PMC5949888
